# Experimental data taken from patent US20090306228A1 (priority 2000, published 2009).
# Assay: peptide synthesis
Substance,step yield (coupling step),step yield (late stage modification step)
Boc-Gly-Gly-Gly-Gly-Leu-Hydrocodone,37%,–
Gly-Gly-Gly-Gly-Leu-Hydrocodone,–,97%
